# Library screen at single concentrations

Sequences of proteins named here, by UniProt entry; tags and fusion partners are left off. Residues count along the entry.
UniProt P9WFT3, whole entry: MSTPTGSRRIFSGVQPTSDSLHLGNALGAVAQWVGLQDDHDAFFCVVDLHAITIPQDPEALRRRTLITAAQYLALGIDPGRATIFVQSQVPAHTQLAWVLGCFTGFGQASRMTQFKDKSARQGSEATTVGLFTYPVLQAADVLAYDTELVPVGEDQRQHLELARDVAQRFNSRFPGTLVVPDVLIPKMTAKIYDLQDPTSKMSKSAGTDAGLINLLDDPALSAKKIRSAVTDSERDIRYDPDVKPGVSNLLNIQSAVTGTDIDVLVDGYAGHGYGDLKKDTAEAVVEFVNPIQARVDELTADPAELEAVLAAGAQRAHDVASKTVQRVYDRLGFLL
UniProt P9WPC5, whole entry: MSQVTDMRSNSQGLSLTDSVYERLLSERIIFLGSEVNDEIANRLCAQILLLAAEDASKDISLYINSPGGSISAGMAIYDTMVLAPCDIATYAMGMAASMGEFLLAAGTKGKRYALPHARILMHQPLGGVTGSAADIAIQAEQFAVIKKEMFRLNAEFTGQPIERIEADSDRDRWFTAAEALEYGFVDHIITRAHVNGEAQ
UniProt P9WPC3, whole entry partner: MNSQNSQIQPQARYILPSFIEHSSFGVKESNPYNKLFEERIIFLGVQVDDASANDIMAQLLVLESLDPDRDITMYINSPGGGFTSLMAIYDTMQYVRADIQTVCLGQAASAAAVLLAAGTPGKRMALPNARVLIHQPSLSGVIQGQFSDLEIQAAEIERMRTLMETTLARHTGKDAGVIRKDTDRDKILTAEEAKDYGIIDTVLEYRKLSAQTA
UniProt Q4DA54, 1-478: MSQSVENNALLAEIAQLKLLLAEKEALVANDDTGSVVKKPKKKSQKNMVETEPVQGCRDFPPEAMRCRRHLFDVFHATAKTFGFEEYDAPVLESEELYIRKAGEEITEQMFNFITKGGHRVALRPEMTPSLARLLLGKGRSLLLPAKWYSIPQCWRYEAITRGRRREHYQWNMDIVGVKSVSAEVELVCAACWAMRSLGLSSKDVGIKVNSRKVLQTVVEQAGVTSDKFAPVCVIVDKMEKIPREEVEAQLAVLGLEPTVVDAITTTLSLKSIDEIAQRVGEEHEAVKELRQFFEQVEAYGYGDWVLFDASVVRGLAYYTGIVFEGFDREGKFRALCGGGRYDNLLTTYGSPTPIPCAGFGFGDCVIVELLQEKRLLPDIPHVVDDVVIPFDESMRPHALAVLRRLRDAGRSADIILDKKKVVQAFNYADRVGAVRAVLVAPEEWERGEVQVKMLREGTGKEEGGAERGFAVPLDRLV

MtTrpRS: 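Tryptophan-tRNA ligase, Mycobacterium tuberculosis (UniProt P9WFT3). Enzyme assay of tryptophanyl-tRNA synthetase; the read-out is not stated. Compounds at 10 µM. Higher most likely means stronger inhibition; the record gives no direction and few retests gave an IC50. About 65,000 compounds were tested under these conditions; 0.098% (about 64) showed 50% or more at least once.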
ClpP1P2: 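ClpP1P2, Mycobacterium tuberculosis (UniProt P9WPC5 and UniProt P9WPC3). Protease assay of ClpP1P2, read by the AMC dye that it sets free. Concentration: 50 µM. Direction is inferred from only a few compounds that gave an IC50; most scored high, so higher reads as stronger inhibition. Most other retested compounds had strongly negative values. Of about 69,000 compounds tested this way, about 10 (0.015%) reached 50% or more in at least one test.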
TcHisRS: 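Enzyme assay of histidyl-tRNA synthetase; the read-out is not stated. Target: Histidine-tRNA ligase, Trypanosoma cruzi CL Brener (UniProt Q4DA54). Compounds at 30 µM. Higher reads as stronger inhibition (inferred: compounds with an IC50 in retests scored well above the rest). Of about 69,000 compounds tested this way, about 31 (0.045%) reached 50% or more in at least one test.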

Results are given as percent effect. The record does not define 0% and 100%; most values in the screen are far below 50% and negative numbers occur (in some assays of this library far below -100). The compounds are a random part of those screened.

With CN(C)C(=O)CNS(=O)(=O)c1cc(Br)ccc1F the screen gave MtTrpRS: -3.631%; ClpP1P2: 1.232%; TcHisRS: -0.5618%. For O=C(CCNc1ncccn1)N1CCCN(c2nccs2)CC1 the result was MtTrpRS: 13.84%; ClpP1P2: -21.65%; TcHisRS: 3.198%. Cc1nn(C)c2nc(N(CCN(C)C)C3CCCC3)sc12 read MtTrpRS: -1.11%; ClpP1P2: 2.959%; TcHisRS: 1.911%. Result for Cc1oc(C(C)C)cc1C(=O)N1C[C@H]2CC[C@@H]1CN(S(=O)(=O)N(C)C)C2 was MtTrpRS: 2.974%; ClpP1P2: 1.745%; TcHisRS: -2.174%. For Cn1cncc1CN1CCC2(CCCN2c2ncccn2)CC1 the result was MtTrpRS: -1.481%; ClpP1P2: 2.735%; TcHisRS: 10.16%. COc1ccc(CS(=O)(=O)CC(=O)NCC2CC2)cc1F gave MtTrpRS: -1.589%; ClpP1P2: 5.199%; TcHisRS: -1.087%. Cc1ccc(N2N=C(C(N)=O)S(=O)(=O)c3cccnc32)cc1 gave MtTrpRS: -0.4823%; ClpP1P2: 14.44%; TcHisRS: 7.921%.

Result for CCn1cc(S(=O)(=O)N2CCCSc3ccccc32)cn1 was MtTrpRS: -0.8596%; ClpP1P2: -5.14%; TcHisRS: 5.263%. With c1ccc(OCCN2CCCCC2Cn2cncn2)cc1 (stereo unspecified) the screen gave MtTrpRS: 0.000006%; ClpP1P2: -12.04%; TcHisRS: 4.36%. Cc1occc(=O)c1OCc1noc(C(=O)NCC2CC2)n1 read MtTrpRS: 3.226%; ClpP1P2: -6.248%; TcHisRS: 2%. Result for COc1ccc(-c2nccn2CC(O)CN2CCCC2)c(F)c1 (stereo unspecified) was MtTrpRS: 2.204%; ClpP1P2: -1.798%; TcHisRS: -3.247%. With Cc1cc(C)nc(N2CCN(C(=O)c3ccc(C4CCCO4)s3)CC2)n1 (stereo unspecified) the screen gave MtTrpRS: 1.319%; ClpP1P2: 1.688%; TcHisRS: 5.814%. For CCc1ncc(C(=O)NCCN2CCNC2=O)cn1 the result was MtTrpRS: 4.845%; ClpP1P2: 2.925%; TcHisRS: 12.06%. For Cc1ccc(CN(C)C(=O)CN2CCCC(Cn3cncn3)C2)o1 (stereo unspecified) the result was MtTrpRS: -1.015%; ClpP1P2: 3.996%; TcHisRS: 8%.

For CCc1ncc2c(n1)CN(Cc1nc(-c3ccccn3)no1)CC2 the result was MtTrpRS: 4.386%; ClpP1P2: -5.95%; TcHisRS: 5.303%. CCCc1nc(Cn2c(=O)n(C)c3ccccc32)no1 read MtTrpRS: -1.079%; ClpP1P2: -5.644%; TcHisRS: 1.734%. For Cc1nn(C)c(C)c1C1CCCN1Cc1nc2ccccc2o1 (stereo unspecified) the result was MtTrpRS: 2.669%; ClpP1P2: -2.89%; TcHisRS: 7.692%. O=c1[nH]c2c(-c3ccccn3)nsc2c(=O)n1CC1CCCO1 (stereo unspecified) gave MtTrpRS: 2.227%; ClpP1P2: 6.08%; TcHisRS: -8.173%. CN1C(Cn2cccn2)C[C@@H]2CN(Cc3nccs3)CC[C@@H]21 (stereo partly specified) gave MtTrpRS: -3.902%; ClpP1P2: -14.94%; TcHisRS: 1%. For Cc1ccc(CN2CCC(O)(Cn3ccc4ncccc43)CC2)o1 the result was ClpP1P2: -9.695%; TcHisRS: 9.574%. CCc1nc(C2CCCN(C(=O)c3cnn(CC)c3)C2)no1 (stereo unspecified) read MtTrpRS: -4.767%; ClpP1P2: 4.412%; TcHisRS: 8.696%.

N#Cc1cc(C#N)c(SCC(=O)NCc2ccc(F)cc2)nc1N gave MtTrpRS: 3.154%; ClpP1P2: -13.15%; TcHisRS: -4.386%. For Cc1cc2cc(C(=O)N3C[C@H](O)[C@]4(CCCO4)C3)ccc2o1 the result was ClpP1P2: 3.897%; TcHisRS: 6.593%. Result for CCOC(=O)N1CCN(C(=O)C(C)n2ccnc2C(C)C)CC1 (stereo unspecified) was MtTrpRS: 0.6623%; ClpP1P2: -7.591%; TcHisRS: 4.217%.

2 of the entries, repeated:

- Cc1occc(=O)c1OCc1noc(C(=O)NCC2CC2)n1 : MtTrpRS: 3.226%; ClpP1P2: -6.248%; TcHisRS: 2%
- Cc1cc2cc(C(=O)N3C[C@H](O)[C@]4(CCCO4)C3)ccc2o1 : ClpP1P2: 3.897%; TcHisRS: 6.593%

The values are deposited in ChEMBL (CHEMBL3988442, “University of Dundee, Small-Polar-MMV Screening Library” (2021)).